Test results taken from doi:10.1101/2025.02.28.640789.
No constants are given. Whether binding was seen depends on the method and setting. Binding seen in cells or lysates may run through a third protein. Some results given as binding are weak or reduced against the parent protein; the word gives no strength. For some assays here: Sequences can lack the tags named with a protein.

By UniProt entry, the sequences of proteins in these tests, tags left out.
UniProt P01106: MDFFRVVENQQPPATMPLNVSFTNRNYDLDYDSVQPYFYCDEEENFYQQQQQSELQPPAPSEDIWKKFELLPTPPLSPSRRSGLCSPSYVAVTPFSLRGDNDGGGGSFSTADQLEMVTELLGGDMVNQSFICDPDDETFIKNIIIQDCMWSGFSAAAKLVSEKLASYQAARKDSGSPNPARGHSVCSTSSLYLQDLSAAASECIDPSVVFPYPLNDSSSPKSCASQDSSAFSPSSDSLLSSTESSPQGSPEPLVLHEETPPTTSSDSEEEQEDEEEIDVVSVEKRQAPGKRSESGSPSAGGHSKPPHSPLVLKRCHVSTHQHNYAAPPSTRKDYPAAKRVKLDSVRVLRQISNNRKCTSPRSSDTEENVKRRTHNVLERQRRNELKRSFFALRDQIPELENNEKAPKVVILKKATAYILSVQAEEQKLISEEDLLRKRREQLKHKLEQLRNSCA
UniProt P04198: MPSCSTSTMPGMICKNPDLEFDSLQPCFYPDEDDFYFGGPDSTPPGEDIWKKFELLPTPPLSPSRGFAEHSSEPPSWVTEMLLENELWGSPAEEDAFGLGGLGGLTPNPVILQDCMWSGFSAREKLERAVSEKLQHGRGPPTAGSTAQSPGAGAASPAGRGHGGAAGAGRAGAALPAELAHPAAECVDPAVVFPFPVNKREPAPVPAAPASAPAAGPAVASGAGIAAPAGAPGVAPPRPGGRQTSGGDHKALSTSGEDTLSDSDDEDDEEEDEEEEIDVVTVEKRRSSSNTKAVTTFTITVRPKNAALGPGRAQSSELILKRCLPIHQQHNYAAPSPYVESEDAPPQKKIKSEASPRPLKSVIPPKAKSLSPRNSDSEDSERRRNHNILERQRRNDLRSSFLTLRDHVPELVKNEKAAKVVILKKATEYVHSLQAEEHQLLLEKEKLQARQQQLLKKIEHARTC

Tests used:
[1] = target: MYC (human (endogenous in HCT116)) (UniProt P01106); assay: proximity ligation
MYCN = MYCN (UniProt P04198); assay: proximity ligation

binding [1]	binding (MYCN)	Binder
binds		CDCA2 endogenously tagged with an auxin degron module (AID) in HCT116 cells (protein, UniProt Q69YH5 1-1023) MDANSKDKPPETKESAMNNAGNASFILGTGKIVTPQKHAELPPNPCTPDTFKSPLNFSTVTVEQLGITPESFVRNSAGKSSSYLKKCRRRSAVGARGSPETNHLIRFIARQQNIKNARKSPLAQDSPSQGSPALYRNVNTLRERISAFQSAFHSIKENEKMTGCLEFSEAGKESEMTDLTRKEGLSACQQSGFPAVLSSKRRRISYQRDSDENLTDAEGKVIGLQIFNIDTDRACAVETSVDLSEISSKLGSTQSGFLVEESLPLSELTETSNALKVADCVVGKGSSDAVSPDTFTAEVSSDAVPDVRSPATPACRRDLPTPKTFVLRSVLKKPSVKMCLESLQEHCNNLYDDDGTHPSLISNLPNCCKEKEAEDEENFEAPAFLNMRKRKRVTFGEDLSPEVFDESLPANTPLRKGGTPVCKKDFSGLSSLLLEQSPVPEPLPQPDFDDKGENLENIEPLQVSFAVLSSPNKSSISETLSGTDTFSSSNNHEKISSPKVGRITRTSNRRNQLVSVVEESVCNLLNTEVQPCKEKKINRRKSQETKCTKRALPKKSQVLKSCRKKKGKGKKSVQKSLYGERDIASKKPLLSPIPELPEVPEMTPSIPSIRRLGSGYFSSNGKLEEVKTPKNPVKRKDLLRHDPDLHMHQGYDKYDVSEFCSYIKSSSSLGNATSDEDPNTNIMNINENKNIPKAKNKSESENEPKAGTDSPVSCASVTEERVASDSPKPALTLQQGQEFSAGGQNAENLCQFFKISPDLNIKCERKDDFLGAAEGKLQCNRLMPNSQKDCHCLGDVLIENTKESKSQSEDLGRKPMESSSVVSCRDRKDRRRSMCYSDGRSLHLEKNGNHTPSSSVGSSVEISLENSELFKDLSDAIEQTFQRRNSETKVRRSTRLQKDLENEGLVWISLPLPSTSQKAKRRTICTFDSSGFESMSPIKETVSSRQKPQMAPPVSDPENSQGPAAGSSDEPGKRRKSFCISTLANTKATSQFKGYRRRSSLNGKGESSLTALERIEHNGERKQ
	binds	CDCA2 (protein, UniProt Q69YH5 1-1023) MDANSKDKPPETKESAMNNAGNASFILGTGKIVTPQKHAELPPNPCTPDTFKSPLNFSTVTVEQLGITPESFVRNSAGKSSSYLKKCRRRSAVGARGSPETNHLIRFIARQQNIKNARKSPLAQDSPSQGSPALYRNVNTLRERISAFQSAFHSIKENEKMTGCLEFSEAGKESEMTDLTRKEGLSACQQSGFPAVLSSKRRRISYQRDSDENLTDAEGKVIGLQIFNIDTDRACAVETSVDLSEISSKLGSTQSGFLVEESLPLSELTETSNALKVADCVVGKGSSDAVSPDTFTAEVSSDAVPDVRSPATPACRRDLPTPKTFVLRSVLKKPSVKMCLESLQEHCNNLYDDDGTHPSLISNLPNCCKEKEAEDEENFEAPAFLNMRKRKRVTFGEDLSPEVFDESLPANTPLRKGGTPVCKKDFSGLSSLLLEQSPVPEPLPQPDFDDKGENLENIEPLQVSFAVLSSPNKSSISETLSGTDTFSSSNNHEKISSPKVGRITRTSNRRNQLVSVVEESVCNLLNTEVQPCKEKKINRRKSQETKCTKRALPKKSQVLKSCRKKKGKGKKSVQKSLYGERDIASKKPLLSPIPELPEVPEMTPSIPSIRRLGSGYFSSNGKLEEVKTPKNPVKRKDLLRHDPDLHMHQGYDKYDVSEFCSYIKSSSSLGNATSDEDPNTNIMNINENKNIPKAKNKSESENEPKAGTDSPVSCASVTEERVASDSPKPALTLQQGQEFSAGGQNAENLCQFFKISPDLNIKCERKDDFLGAAEGKLQCNRLMPNSQKDCHCLGDVLIENTKESKSQSEDLGRKPMESSSVVSCRDRKDRRRSMCYSDGRSLHLEKNGNHTPSSSVGSSVEISLENSELFKDLSDAIEQTFQRRNSETKVRRSTRLQKDLENEGLVWISLPLPSTSQKAKRRTICTFDSSGFESMSPIKETVSSRQKPQMAPPVSDPENSQGPAAGSSDEPGKRRKSFCISTLANTKATSQFKGYRRRSSLNGKGESSLTALERIEHNGERKQ
